In PubChem BioAssay AID2685 (National Center for Advancing Translational Sciences (NCATS), 2010) one finds cell number change and AC50 data, which are given here for 62 compounds.

The nature of this experiment: qHTS Assay for Lipid Storage Modulators in Drosophila S3 Cells.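 For cell number change: cells counted by Cell Tracker Red CMTPX staining in the red channel.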 The following applies: BODIPY lipid droplet fluorescence, 18-24 h; for cell number change: measured here: cell count max response, cells fed with added oleic acid. The method in brief: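 Laser-scanning cytometry quantifies lipid droplet accumulation (500–530 nm total intensity; droplet/cell object ratio) in oleic acid-fed (400 uM added) Drosophila S3 cells treated with a concentration series. 20 uM Triacsin C defined 100% inhibition.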
Background: In qHTS, concentration-response curves come from the screen itself.

The mark [1] stands for this setting: measured here: cell number channel AC50, cells fed with added oleic acid.
The mark [2] stands for this setting: measured here: lipid fluorescence (Fed channel) AC50, cells fed with added oleic acid.

Molecules are shown by their SMILES. Some of the results follow. Shown are side measurements of this screen, not its main read-out; they come without a call. Most of these compounds were active or inconclusive in the main read-out, so they are no random draw. The note in brackets gives the kind of curve behind each potency; many fits are weak.

Turning to `COc1ccccc1N1CCN(/N=C\C(Br)=C\c2ccccc2)CC1`, the cell number change is -7.32%.
Broadly, the AC50 is the midpoint of the concentration-response curve, whichever way the signal moves. For the compound `Cc1ccccc1NC(=S)N1CCC(NC(=O)c2ccco2)CC1`, the cell number change is -77.4%. Moreover, the AC50 under setting [1] is 13 µM [falling, partial curve]. Further, the AC50 under setting [2] was 9.2 µM [falling, partial curve].
On to `C=C1c2cc(C)ccc2NC(=O)N1c1ccc(C)cc1`, for which the cell number change came out at 63.4%. Besides, the AC50 under setting [1] is 5.8 µM [rising, partial curve].
With `CN(C)CC/C=C1/c2cc(F)ccc2CSc2ccc(F)cc21`, the cell number change is -16.5%.
In the case of `CC(C)(C)OC(=O)NCCCC(CCCNC(=O)OC(C)(C)C)C(=O)O`, the half-maximal activity concentration (AC50) under setting [2] is 18.4 µM [falling, partial curve].
In the case of `CCN(CC(=O)NC(=O)NC1CCCCC1)Cc1nc2ccccc2c(=O)[nH]1`, the cell number change was 34.4%. In addition, the AC50 under setting [1] was 0.231 µM [rising, full curve]. Also, the concentration at half-maximal activity (AC50) under setting [2] was 0.92 µM [rising, full curve].
For `CC(=O)c1ccc(NC(=O)COC(=O)c2ccccc2N=Nc2ccc(N(C)C)cc2)cc1`, under setting [2], the AC50 was 6.51 µM [falling, single point].
For the compound `Cc1nc2ccccc2c(=O)n1/N=C/c1cccnc1`, the cell number change turned out to be 58.1%. The AC50 under setting [1] is 4.11 µM [rising, partial curve]. In addition, under setting [2], the AC50 was 2.31 µM [rising, partial curve].
For `Cc1nn(C)cc1/C=N/NC(=O)c1ccc2c(c1)OCO2`, the cell number change is -22.6%. The AC50 under setting [2] is 20.6 µM [falling, single point].
As to `C[C@@H](C(=O)NCC1CCCO1)N1C(=O)N2CCc3c([nH]c4ccccc34)[C@@]2(C)C1=O` (stereo not given in full), the cell number change was -9.7%.
For the compound `O=C(Nc1ccccc1)N1CCCN(c2ccc(C(F)(F)F)cc2[N+](=O)[O-])CC1`, the cell number change came to 8.86%. In addition, the AC50 under setting [2] was 3.26 µM [rising, single point].
As for `CC(C)NC(=O)COC(=O)c1ccccc1CSC1=NCCS1`, the cell number change came out at 6.3%.
Consider `CSc1ccc(C(=O)C2CCCN(C(=O)c3ccsc3)C2)cc1` (stereo not given), for which the cell number change is -20.5%. Further, the AC50 under setting [2] is 13 µM [falling, partial curve].
For `COc1cccc(CNC(=O)N2CCN(c3ccccc3Cl)CC2)c1`, the cell number change turned out to be 24.6%. The AC50 under setting [2] is 29.1 µM [rising, single point].
Regarding `COc1ccc(OC)c(NC(=O)CSc2n[nH]c(-c3cccnc3)n2)c1`, the cell number change was -9.52%. The AC50 under setting [2] was 0.231 µM [rising, full curve, poor fit].
In the case of `COc1ccc(C(=O)Nc2nccs2)cc1`, the cell number change was -2.19%.
Turning to `O=C(O)C1C2CCC(C2)C1C(=O)NCCC1=CCCCC1` (stereo not given), the cell number change was 18.9%. Besides, the AC50 under setting [2] is 29.1 µM [rising, single point].
As to `COc1ccc(S(=O)(=O)N2CCN(S(=O)(=O)c3c(F)cccc3F)CC2)cc1`, the cell number change is 36%.
`O=C(COC(=O)/C=C/c1ccccc1)NCCNC(=O)COC(=O)/C=C/c1ccccc1`: the cell number change turned out to be 2.64%. Also, under setting [2], the half-maximal activity concentration (AC50) was 6.51 µM [falling, single point].
For the compound `COC(=O)C1=C(C)N(CCCC(=O)O)C(=O)NC1c1cc2c(cc1[N+](=O)[O-])OCO2` (stereo not given), the AC50 under setting [2] is 1.64 µM [rising, partial curve].
Consider `Cc1cc(OCc2nn[nH]n2)c2c(C)c(Cc3ccccc3)c(=O)oc2c1`, for which the cell number change came to 15.7%.
Turning to `C=Cc1ccc(Cn2nc(-c3ccc(C)cc3)ccc2=O)cc1`, the cell number change was -14.2%. Further, the AC50 under setting [2] is 29.1 µM [falling, single point].
As for `COc1ccccc1NS(=O)(=O)c1ccc(/C=C/C(=O)N2CCN(C(C)=O)CC2)cc1`, the cell number change came to 10.4%. The AC50 under setting [2] is 10.3 µM [falling, partial curve].
`O=C(CCc1nnc2ccc(N3CCCCC3)nn12)NCC1CCN(Cc2ccc(F)cc2)CC1`: the cell number change is 6.11%. The AC50 under setting [2] was 29.1 µM [falling, single point].
In the case of `CCc1ccc(NC(=O)CCn2cccc2)cc1`, the half-maximal activity concentration (AC50) under setting [1] is 2.31 µM [falling, partial curve].
On to `Cc1cccc2cc(C(c3nnnn3CC3CCCO3)N3CCOCC3)c(=O)[nH]c12` (stereo not given), for which the cell number change is -2.77%. In addition, under setting [2], the AC50 was 0.58 µM [falling, single point].
For `CC1CCC(C(C)C)C(OC(=O)CSc2nccc(=O)[nH]2)C1` (stereo not given), the cell number change was -82.6%. Under setting [1], the concentration at half-maximal activity (AC50) is 23.1 µM [falling, partial curve].
On to `CCOc1ccccc1NC(=O)/C=C/c1ccccc1[N+](=O)[O-]`, for which the cell number change is -34.4%. Further, under setting [1], the half-maximal activity concentration (AC50) was 32.6 µM [falling, single point]. The AC50 under setting [2] is 18.4 µM [rising, single point].
On to `CCn1c(SCC(=O)NCCc2ccc(OC)c(OC)c2)nc2c1c(=O)n(C)c(=O)n2C`, for which the cell number change came out at 10.3%. The AC50 under setting [1] was 0.146 µM [falling, single point].
Turning to `COC(=O)c1ccc(NC(=O)CSCc2ccccc2C)cc1`, the cell number change was -1.52%. Under setting [2], the AC50 was 0.651 µM [falling, single point].
In the case of `CCOC(=O)C1CCN(Cc2oc(CO)cc(=O)c2O)CC1`, the cell number change was -20.6%. Moreover, the AC50 under setting [1] is 0.461 µM [falling, full curve, poor fit].
`Cc1nc(NC(=O)c2cc3ccccc3o2)ccc1Br`: the cell number change is -31.7%. For the same compound, under setting [1], the AC50 is 0.326 µM [falling, full curve, poor fit].
Turning to `COc1ccc(NC(=O)C2C3C=CC4(O3)C2C(=O)N(CCCN2CCCC(C)C2)C4C(=O)NC2CCCCC2)cc1` (stereo not given), the cell number change is -7.62%. In addition, the AC50 under setting [2] is 18.4 µM [rising, partial curve].
As to `CC[C@@H](C)[C@H](NC(=O)Cc1c(C)c2cc3c(C)coc3c(C)c2oc1=O)C(=O)O`, the cell number change turned out to be 39%. Further, the AC50 under setting [1] was 23.1 µM [rising, partial curve].
In the case of `COCCCNC(=O)c1cc2c(-c3ccc(Cl)cc3)nn(C)c2s1`, the AC50 under setting [1] was 3.26 µM [rising, partial curve].
Turning to `COc1ccc(NC(=O)CS(=O)(=O)Cc2nc(-c3ccc(C)cc3)oc2C)cc1`, the cell number change worked out at 179%. Under setting [1], the AC50 was 20.6 µM [rising, single point]. In addition, under setting [2], the AC50 is 0.00461 µM [falling, full curve, poor fit].
Take `Cc1noc(NS(=O)(=O)c2ccc(NC(=O)CSc3ncccn3)cc2)c1C`: the cell number change was -54.8%. Also, under setting [1], the AC50 was 32.6 µM [falling, single point]. The AC50 under setting [2] was 32.6 µM [falling, partial curve].
`Cc1ccc(C(=O)Nc2ccccc2C(=O)NC(CC(=O)O)C(=O)O)cc1` (stereo not given): the cell number change was determined as 11.7%.
Take `Cc1ccc(S(=O)(=O)N2CCOCC2)cc1NC(=O)CSc1nnnn1C1CCCC1`: the cell number change came to 1.94%. Further, the half-maximal activity concentration (AC50) under setting [2] was 2.59 µM [rising, single point].
For `C=CCn1c(C)cc(C(=O)COc2ccc(C)nc2[N+](=O)[O-])c1C`, the cell number change was -37.7%. Besides, the AC50 under setting [1] was 29.1 µM [falling, single point].
`O=C(/C=C/c1ccccc1Cl)NCc1ccco1`: the cell number change is -24.3%. Further, the AC50 under setting [2] was 29.1 µM [falling, single point].
In the case of `COC(=O)c1c(C(=O)OC)c2ccccn2c1C(=O)c1ccccc1`, the cell number change stood at 4.11%. The AC50 under setting [2] is 0.731 µM [falling, full curve].
On to `Cc1nc(N)sc1N=Nc1ccc(F)cc1`, for which the cell number change is -7.03%.
Take `O=C(NC1CCCCC1)C1CCCN(c2nnnn2-c2ccccc2)C1` (stereo not given): the cell number change is 25.9%. Also, under setting [2], the half-maximal activity concentration (AC50) was 13 µM [rising, partial curve].
On to `COc1ccc(NS(=O)(=O)c2cccc(C(=O)N/N=C/c3cn(-c4ccccc4)nc3-c3ccc(OC)cc3)c2)cc1`, for which the cell number change was determined as 18.9%. Moreover, the AC50 under setting [2] is 0.164 µM [rising, full curve, poor fit].
For `CC(C)(C)c1cnnn1-c1ccc([N+](=O)[O-])cc1`, the cell number change was 0.947%. Under setting [2], the AC50 is 0.651 µM [falling, single point].
Regarding `O=c1c2ccccc2oc2cc(NCCCN3CCOCC3)ccc12`, the cell number change turned out to be 23.3%. The AC50 under setting [2] is 29.1 µM [rising, single point].
With `Cc1ccc(C)c(N2CCN(C(=O)Cc3ccc(NC4=NC5CS(=O)(=O)CC5S4)cc3)CC2)c1` (stereo not given), the cell number change was -9.8%.
`CCn1c(SCC(=O)Nc2cc(C)on2)nc2sc3c(c2c1=O)CCCC3`: the cell number change is -60.7%. Moreover, the half-maximal activity concentration (AC50) under setting [1] was 7.31 µM [falling, partial curve]. The concentration at half-maximal activity (AC50) under setting [2] was 5.8 µM [falling, partial curve].
Consider `COc1ccc(OCCC(=O)OCC(=O)NCCc2ccccc2)cc1`, for which the cell number change amounted to 0.82%. Besides, the AC50 under setting [2] is 29.1 µM [falling, partial curve, poor fit].
Turning to `O=c1c2ccccc2nc(-c2ccco2)n1CCc1ccc(O)cc1`, the cell number change is -22.2%. The AC50 under setting [1] was 2.06 µM [falling, partial curve, poor fit]. Under setting [2], the AC50 is 23.1 µM [rising, partial curve].
Regarding `CCCN(CCC)CCCNC(=O)c1ccc(CS(=O)(=O)c2c(Cl)cccc2Cl)o1`, the cell number change amounted to 23.5%. Moreover, under setting [2], the AC50 was 1.3 µM [rising, partial curve, poor fit].
On to `Cc1[nH]n(C)c(=O)c1C(=O)c1c(-c2ccccc2Cl)noc1C`, for which the cell number change was -63.4%. For the same compound, under setting [1], the AC50 is 29.1 µM [falling, single point]. Further, the concentration at half-maximal activity (AC50) under setting [2] was 29.1 µM [falling, single point].
As for `CC(=O)CCc1ccc(Oc2nc(-c3cccnc3)nc3ccccc23)cc1`, the cell number change was determined as 18.9%.
`O=C(NN1C(=O)/C(=C\c2cccnc2)SC1=S)C(c1ccccc1)c1ccccc1`: the cell number change is -26.1%. Under setting [2], the AC50 is 16.4 µM [falling, single point].
Turning to `Cc1ccc(SCC(=O)OCC(=O)N(CC(C)C)C2CCS(=O)(=O)C2)cc1C` (stereo not given), the cell number change was determined as 175%. Besides, the AC50 under setting [1] is 18.4 µM [rising, single point].
`OCC1(CCOc2ccccc2)CCN(Cc2ccccc2C(F)(F)F)CC1`: the cell number change is -2.75%.
Regarding `COc1ccccc1CNC(=O)CCC(=O)N1Cc2cccc(OC)c2Oc2ncccc21`, the cell number change was -20.3%. Besides, under setting [2], the AC50 was 29.1 µM [falling, single point].
For the compound `COCC(=O)N1CCC(Oc2ccc(C(=O)N(C)C(C)c3ccon3)cc2)CC1` (stereo not given), the cell number change was -6.93%. The AC50 under setting [2] is 6.51 µM [falling, single point].
With `N#CC(=C=[N-])c1nc2ccccc2nc1-[n+]1cccc(NC(=O)c2cccs2)c1`, the cell number change is -23.6%. For the same compound, under setting [2], the concentration at half-maximal activity (AC50) was 32.6 µM [falling, single point].
For `Cc1ccc(NC(=O)CN(C)C(=O)COC(=O)/C=C/c2cccs2)cc1`, the half-maximal activity concentration (AC50) under setting [2] was 6.51 µM [rising, single point].
Take `Cc1cccc(N(CC(=O)NCc2ccco2)C(=O)CNS(=O)(=O)c2ccc(F)cc2)c1`: the AC50 was 6.51 µM [rising, single point] under setting [1] and 29.1 µM [rising, single point] under setting [2].
